# At least one structure is not confirmed: it was looked up by name or label, or the drawing left a doubt.
# Experiment: Thin layer electrophoresis (EP) of technetium-99m-labeled compounds
# Type: physicochemical
# Conditions: Table 16, Tc-99m-labeled; 50 mM phosphate buffer pH 7.4, 0.5 mA/cm, room temperature, 15 minutes
# Method: ZI. Thin layer electrophoresis for Tc-99m-(BI-11c)
# An appropriate amount of Tc-99m-(BI-11c) was spotted on an acetylated cellulose membrane and subjected to electrophoresis using 50 mM phosphate buffer (pH, 7.4) as an electrode buffer at a constant current of 0.5 mA/cm and at room temperature for 15 minutes. In the same manner as in ZH, the membrane was scanned to determine the distribution of radioactivity with a thin layer radioachromatoscanner.
# In the same manner as in Example 8 ZF, ZG, ZH and ZI but using other polyaminedithiol compounds instead of Compound (11c), preparation of non-radioactive carriers and radioactive diagnostic agents was made. The optimum labeling conditions for the polyaminedithiol compounds were studied. Furthermore, the physical characteristics of the produced technetium-99m-labeled polyaminedithiol compounds were evaluated.
row,EP (Charge),SMILES
1,.smallcircle.,"CC(C)(S)CNCCNC(CN1CCCCC1)C(C)(C)S (stereo not shown) [Compound 11g, N-(2-Mercapto-2-methylpropyl)-N' -(2-mercapto-2-methyl-1-piperidino-methylpropyl)ethylenediamine]"
2,+,"CC(C)(S)CNCCNC(CN1CCOCC1)C(C)(C)S (stereo not shown) [Compound 11k, N-(2-Mercapto-2-methylpropyl)-N' -(2-mercapto-2-methyl-1-morpholino-methylpropyl)ethylenediamine]"
3,+,"CCCC(C)NCC(NCCNCC(C)(C)S)C(C)(C)S (stereo not shown) [Compound 11l, N-(2-Mercapto-2-methylpropyl)-N' -[1-(1-methylbutylamino)-methyl-2-mercapto-2-methylpropyl]ethylene-diamine]"
4,+,"CCCCN(CC)CC(NCCNCC(C)(C)S)C(C)(C)S (stereo not shown) [Compound 11n, N-(2-Mercapto-2-methylpropyl)-N' -[1-(N-butyl-N-ethylamino)-methyl-2-mercapto-2-methylpropyl]ethylenediamine]"

# Reference: patent publication US5071636A, “Chelating compounds and their use” (Nihon Medi-Physics Co., Ltd., priority 1987, dated 1991)
